Our source for the step yield values is patent publication US20180036364A1 (priority 2015, published 2018).

This data set in a line: peptide synthesis. Particulars: coupling step.

With “2-(tubulysin B)hydrazinecarboxylic acid (3′nitropyridyl-2′-yl)disulfanylethyl ester”, the step yield is given as 89% yield.
